# Reference: PubChem BioAssay AID1487 (National Center for Advancing Translational Sciences (NCATS), 2009)
# The other results are listed elsewhere or left out. Further columns of the screen follow, without active or inactive calls. The list favours compounds with an active or inconclusive main result. Potencies come from curve fits of mixed quality, noted in brackets.
# Assay: qHTS Assay for Modulators of Lamin A Splicing
# Details: HeLa LMNA splicing GFP/RFP minigene ratio, 48 h
# Outline: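 Read-out is the ratio of GFP to DsRed2 object intensity, acquired by 488 nm laser-scanning cytometry on HeLa lamin A-EGFP minigene reporter cells. Compound incubation 48 hrs at 37 °C in Opti-MEM with 2% FBS; DMSO 0.5% final.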
# [1] = measured here: RFP viability control channel
# [2] = measured here: GFP splicing reporter channel
compound,measurement,setting,value
CCCN1CCN(c2ncnc3sc(C(=O)Nc4ccc(C(C)C)cc4)c(C)c23)CC1,AC50,[1],"10 µM [rising, partial curve, poor fit]"
O=C(CS(=O)(=O)c1cccc2nsnc12)N1CCN(c2cccc(Cl)c2)CC1,AC50,[1],"0.316 µM [rising, full curve, poor fit]"
CC12CCC(=O)N1C(C(=O)OCC(=O)Nc1cc(S(=O)(=O)N3CCCCC3)ccc1Cl)CS2 (stereo unspecified),AC50,[2],"0.1 µM [falling, full curve]"
same,AC50,[1],"0.1 µM [falling, full curve, poor fit]"
COc1cc(/C=C(/C#N)C(=O)NCCc2c[nH]c3ccccc23)ccc1OCc1ccccc1F,AC50,[2],"5.01 µM [falling, partial curve]"
same,AC50,[1],"5.62 µM [falling, single point]"
COc1cc(SC)ccc1C(=O)Nc1ccc(S(=O)(=O)Nc2nccc(C)n2)cc1,AC50,[2],"2.24 µM [falling, full curve, poor fit]"
same,AC50,[1],"3.98 µM [falling, partial curve]"
CC(C)OC(=O)C(C)(C)Oc1ccc(C(=O)c2ccc(Cl)cc2)cc1,AC50,[2],"6.31 µM [rising, partial curve, poor fit]"
same,AC50,[1],"12.6 µM [rising, single point]"
Cc1cccc(CNc2nc(-c3ccc4c(c3)OCO4)nc3ccccc23)c1,AC50,[2],"4.47 µM [falling, partial curve]"
same,AC50,[1],"8.91 µM [falling, partial curve]"
CN(C)S(=O)(=O)c1ccc(C(=O)OCC(=O)c2ccc(OC(F)F)cc2OC(F)F)cc1,AC50,[1],"39.8 µM [falling, partial curve, poor fit]"
N#C/C(=C/c1ccccc1[N+](=O)[O-])c1nc(C2CC2)cs1,AC50,[1],"7.94 µM [rising, partial curve, poor fit]"
CN=Cc1sc2ccccc2c1O,AC50,[1],"35.5 µM [falling, single point]"
CN(CCC#N)C(=O)CSc1ncnc2sc(-c3ccccc3)cc12,AC50,[2],"3.98 µM [rising, partial curve]"
same,AC50,[1],"12.6 µM [rising, partial curve]"
COC(=O)c1c(-c2ccccc2)csc1NC(=O)c1c(-c2ccccc2)noc1C,AC50,[1],"2.51 µM [rising, full curve]"
O=C(Nc1ccc(S(=O)(=O)Nc2ncccn2)cc1)c1ccc(S(=O)(=O)N2CCCC2)cc1,AC50,[1],"0.0631 µM [rising, full curve, poor fit]"
COc1cccc(C(=O)Nc2ccc(S(=O)(=O)NCc3ccco3)cc2)c1,AC50,[2],"28.2 µM [rising, single point]"
same,AC50,[1],"35.5 µM [rising, single point]"
COc1ccc(Nc2ccc3c(c2)=NC2(CCCCC2)[N+]=3[O-])cc1,AC50,[2],"11.2 µM [falling, partial curve]"
same,AC50,[1],"15.8 µM [falling, partial curve]"
CO[C@]1(NC(=O)C2SC(=C(C(N)=O)C(=O)O)S2)C(=O)N2C(C(=O)O)=C(CSc3nnnn3C)CS[C@H]21 (stereo partly specified),AC50,[1],"7.94 µM [rising, partial curve, poor fit]"
CC1=NN(c2ccccc2)C(=O)/C1=C\C=C1/N(C)c2ccccc2C1(C)C,AC50,[1],"2.24 µM [rising, partial curve, poor fit]"
CCc1ccc(CN(C)C(=O)CCc2nnc(Cc3cccc(C)c3)o2)nc1,AC50,[2],"35.5 µM [falling, partial curve, poor fit]"
same,AC50,[1],"35.5 µM [falling, partial curve, poor fit]"
S=C(NCc1ccc(Cl)cc1)NC12CC3CC(CC(C3)C1)C2,AC50,[2],"17.8 µM [rising, single point]"
same,AC50,[1],"31.6 µM [rising, single point]"
COc1cccc(CN(C)C(=O)c2ccc(S(=O)(=O)N3CCCC3)cc2)c1OC,AC50,[2],"0.2 µM [rising, full curve, poor fit]"
Cc1c(O)c(=O)n(-c2ccccc2)n1C,AC50,[2],"0.00224 µM [falling, full curve, poor fit]"
COc1cccc(C(C)NC(=O)Nc2cccc(C(F)(F)F)c2)c1 (stereo unspecified),AC50,[2],"12.6 µM [falling, single point]"
same,AC50,[1],"15.8 µM [falling, partial curve, poor fit]"
S=C(Nc1ccc(Cl)c(Cl)c1)N1CCOCC1,AC50,[2],"8.91 µM [rising, partial curve, poor fit]"
same,AC50,[1],"12.6 µM [rising, partial curve]"
Cc1ccc(S(=O)(=O)Nc2cc(Cl)c(O)cc2C)cc1,AC50,[1],"20 µM [rising, single point]"
Cc1ccc(Cn2c(N3CCCCCC3)nc3c2c(=O)[nH]c(=O)n3C)cc1,AC50,[2],"35.5 µM [rising, single point]"
CCN(CC)C(=S)NC(=O)c1cccnc1,AC50,[2],"10 µM [rising, partial curve, poor fit]"
Cc1cc(Cl)ccc1NC(=S)NCc1ccco1,AC50,[1],"35.5 µM [rising, single point]"
Clc1ccc(OCc2nc(-c3ccccn3)no2)c(Br)c1,AC50,[2],"35.5 µM [rising, single point]"
same,AC50,[1],"35.5 µM [rising, single point]"
COc1ccccc1/C=C/C(=O)Nc1ccc(N2CCOCC2)cc1,AC50,[2],"35.5 µM [falling, single point]"
same,AC50,[1],"35.5 µM [falling, single point]"
O=C1CCCC2(O)C1C(c1cccc(Br)c1)NC(=O)N2Cc1ccccc1 (stereo unspecified),AC50,[2],"0.0224 µM [rising, full curve, poor fit]"
same,AC50,[1],"0.0562 µM [rising, full curve, poor fit]"
CCOc1ccc(C(=O)Cn2c(=O)n3nc(CCn4nc(C)cc4C)nc3c3cc(OC)c(OC)cc32)cc1,AC50,[2],"0.251 µM [falling, single point]"
same,AC50,[1],"0.355 µM [falling, single point]"
CC1CCc2c(sc(Nc3nc4c(F)cccc4s3)c2C(N)=O)C1 (stereo unspecified),AC50,[2],"10 µM [falling, partial curve, poor fit]"
COc1ccc(S(=O)(=O)N2CCCCC2C(=O)O)cc1OC (stereo unspecified),AC50,[1],"20 µM [falling, partial curve]"
CCCCOc1ccc(-c2cn3ccccc3n2)cc1[N+](=O)[O-],AC50,[2],"31.6 µM [rising, single point]"
same,AC50,[1],"31.6 µM [rising, single point]"
Cc1ccc(-c2ccc(/C=N\NC(=O)C3C(=O)NCC3c3ccccc3)o2)cc1Cl (stereo unspecified),AC50,[2],"35.5 µM [falling, single point]"
same,AC50,[1],"35.5 µM [falling, single point]"
c1ccc(COc2ccc(OCCCn3cncn3)cc2)cc1,AC50,[1],"11.2 µM [rising, single point]"
Cc1nn(Cc2ccc(C(=O)N3CCOCC3)o2)c(C)c1Br,AC50,[2],"22.4 µM [rising, single point]"
same,AC50,[1],"17.8 µM [rising, single point]"
COC(=O)c1cccc(CSc2nc3ccccc3[nH]2)c1,AC50,[1],"11.2 µM [rising, partial curve]"
Cn1cc(C(=O)c2ccc(Cl)cc2Cl)cc1C(=O)N/N=C(\N)COc1cccc(C(F)(F)F)c1,AC50,[1],"15.8 µM [rising, single point]"
C=CCn1c(SCc2ccc(Cl)c(Cl)c2)nnc1C(CO)NC(=O)c1ccc(OC)cc1 (stereo unspecified),AC50,[1],"12.6 µM [rising, single point]"
Cc1ccccc1Oc1cc(-n2ncc(Cl)c(Cl)c2=O)ncn1,AC50,[2],"12.6 µM [falling, partial curve, poor fit]"
same,AC50,[1],"20 µM [falling, single point]"
CCOc1ccc(NC2=C(OC)C(=O)c3ccccc3C2=O)cc1,AC50,[1],"15.8 µM [rising, single point]"
Cc1ccc(S(=O)(=O)/N=C(\N)Nc2nc(C)c3cc(C)c(C)cc3n2)cc1,AC50,[1],"22.4 µM [rising, single point]"
COc1ccc(-c2cc(C(F)(F)F)nc(SCC(=O)N(C)Cc3cnn(C)c3C)n2)cc1OC,AC50,[1],"2.82 µM [rising, full curve]"
CCCCC(=O)OC1CCC2C3CCc4cc(O)ccc4C3CC[C@]12C (stereo partly specified),AC50,[2],"10 µM [falling, partial curve]"
same,AC50,[1],"11.2 µM [falling, partial curve, poor fit]"
Cc1ccccc1C(=O)Nc1nc(-c2ccc(Br)cc2)ns1,AC50,[2],"0.224 µM [rising, partial curve]"
same,AC50,[1],"22.4 µM [rising, partial curve, poor fit]"
c1ccc(COn2c(-c3ccccc3)nc3c2CCc2nonc2-3)cc1,AC50,[1],"35.5 µM [rising, single point]"
CC(C)NC(=O)C1CCC(Cn2c(=O)c3sccc3n(CC(=O)Nc3ccccc3)c2=O)CC1 (stereo unspecified),AC50,[1],"17.8 µM [falling, single point]"
COC(=O)CCN(C1CCCCC1)S(=O)(=O)c1ccc(S(=O)(=O)NC2CCCCC2)cc1,AC50,[2],"3.98 µM [falling, single point]"
same,AC50,[1],"3.16 µM [falling, single point]"
CC(C)Oc1ccc(CNC(=O)C2CCN(C(=O)N3CC(C)Oc4ccccc43)CC2)cc1 (stereo unspecified),AC50,[1],"6.31 µM [falling, partial curve, poor fit]"
CC(=O)N1N=C(c2ccccc2)CC1c1cn(Cc2ccccc2)c2ccccc12 (stereo unspecified),AC50,[2],"17.8 µM [rising, single point]"
same,AC50,[1],"17.8 µM [rising, partial curve, poor fit]"
CCCCOc1ccc(Cc2c(Cl)nc(SC)nc2N2CCOCC2)cc1,AC50,[1],"12.6 µM [rising, partial curve]"

# Quoted at random: 3 records from the list.
compound,measurement,setting,value
Cc1ccc(S(=O)(=O)/N=C(\N)Nc2nc(C)c3cc(C)c(C)cc3n2)cc1,AC50,[1],"22.4 µM [rising, single point]"
COc1cccc(C(=O)Nc2ccc(S(=O)(=O)NCc3ccco3)cc2)c1,AC50,[1],"35.5 µM [rising, single point]"
Cc1ccc(Cn2c(N3CCCCCC3)nc3c2c(=O)[nH]c(=O)n3C)cc1,AC50,[2],"35.5 µM [rising, single point]"
